PubChem BioAssay AID1053208 – Peter MacCallum Cancer Centre – 2014
This is one part, drawn at random, of about 17,000 reagents. 788 of them (4.7%) count as active. 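Calls rest on z-score classes alone; an extra cut-off of viability at most 70% of control was not applied to them.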 A number with no mark means an inactive call. Some reagents were tested in more than one well and are listed for each. Further read-outs or replicates are left out here.

Screen: 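Find knock-downs that sensitise mouse osteosarcoma cells to doxorubicin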 (primary screen)
Cells: mouse osteosarcoma cells, early-passage culture from an engineered mouse model of fibroblastic bone tumour
Reagents: siRNA pool against mouse genes, 40 nM
Duration: about 120 h (48 h before drug, then 72 h with drug)
Treatment: doxorubicin 100 nM for 72 h, roughly 30-40% inhibitory dose
Read-out: 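Luminescent ATP signal taken as viability with or without 100 nM doxorubicin for 72 h; mean of two wells set against non-targeting siRNA and turned into robust z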
Reading the numbers: viability z-score with doxorubicin: higher = more viable cells under doxorubicin; viability z-score without drug: higher = more viable cells with knock-down alone
Call rule: 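Called active if knock-down leaves viability unchanged without drug (z within -2 to 2) but lowers it with doxorubicin (z at or under -2)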

no.	gene knocked down	combined z-score class	viability z-score with doxorubicin	viability z-score without drug
1	Rasa4 (RAS p21 protein activator 4)	no change with or without drug	1.35	0.34
2	Taf1d	no change with or without drug	0.45	0.51
3	Art5 (ADP-ribosyltransferase 5)	no change with or without drug	1.57	-0.17
4	Ttpal (tocopherol (alpha) transfer protein-like)	no change with or without drug	1.12	0.67
5	Gdpd2 (glycerophosphodiester phosphodiesterase domain containing 2)	no change with or without drug	-0.34	1.18
6	Snap47 (synaptosomal-associated protein, 47)	no change with or without drug	-1.57	-0.34
7	Cd24a (CD24a antigen)	no change with or without drug	-0.56	0.67
8	Gata1 (GATA binding protein 1)	no change with or without drug	-0.34	-1.18
9	Cfap74 (cilia and flagella associated protein 74)	no change with or without drug	-1.8	-1.52
10	Slc7a11	no change with or without drug	-1.57	-0.17
11	Gk5 (glycerol kinase 5)	no change with or without drug	0	-0.17
12	Nlrp9c (NLR family, pyrin domain containing 9C)	no change with or without drug	1.57	1.01
13	Kif21b (kinesin family member 21B)	no change with or without drug	-0.45	-0.51
14	Cby2 (chibby family member 2)	no change with or without drug	-0.45	-1.52
15	Nup50 (nucleoporin 50)	no change with or without drug	0.45	-0.17
16	Dstyk (dual serine/threonine and tyrosine protein kinase)	no change with or without drug	-0.34	-0.17
17	V1rd19 (vomeronasal 1 receptor, D19)	no change with or without drug	-0.9	-0.67
18	Il17c (interleukin 17C)	no change with or without drug	0.67	-0.51
19	Or10g7 (olfactory receptor family 10 subfamily G member 7)	low cell count with doxorubicin only (active)	-2.02	-0.67

The list goes on; the last 3 above are carried over.
no.	gene knocked down	combined z-score class	viability z-score with doxorubicin	viability z-score without drug
17	V1rd19 (vomeronasal 1 receptor, D19)	no change with or without drug	-0.9	-0.67
18	Il17c (interleukin 17C)	no change with or without drug	0.67	-0.51
19	Or10g7 (olfactory receptor family 10 subfamily G member 7)	low cell count with doxorubicin only (active)	-2.02	-0.67
20	Atg3 (autophagy related 3)	low cell count without drug only	1.35	-3.54
21	S100a3 (S100 calcium binding protein A3)	no change with or without drug	-0.79	-0.34
22	P2ry13 (purinergic receptor P2Y, G-protein coupled 13)	no change with or without drug	-0.22	0.34
23	Nnmt (nicotinamide N-methyltransferase)	no change with or without drug	-0.22	-1.52
24	Tifab	no change with or without drug	0	-1.18
25	Slc9d1	no change with or without drug	0	0.51
26	Hbp1 (high mobility group box transcription factor 1)	no change with or without drug	-0.67	-0.84
27	Rab7 (RAB7, member RAS oncogene family)	no change with or without drug	-0.22	-0.17
28	Hacd2 (3-hydroxyacyl-CoA dehydratase 2)	no change with or without drug	1.01	0.17
29	Apbb1ip	no change with or without drug	-0.22	-0.17
30	Shc2	no change with or without drug	-0.22	0.51
31	Mrpl30 (mitochondrial ribosomal protein L30)	no change with or without drug	-0.11	-0.34
32	Pigh (phosphatidylinositol glycan anchor biosynthesis, class H)	high cell count with doxorubicin only	2.02	1.85
33	Saxo2 (stabilizer of axonemal microtubules 2)	no change with or without drug	0.34	-0.51
34	Gclm (glutamate-cysteine ligase, modifier subunit)	no change with or without drug	-0.67	-0.67
35	Ifna6 (interferon alpha 6)	high cell count with and without drug	3.04	3.37
36	Tle3 (transducin-like enhancer of split 3)	no change with or without drug	-1.12	-0.51
37	Tpd52l2 (tumor protein D52-like 2)	no change with or without drug	-0.9	0.51
38	Acbd5 (acyl-Coenzyme A binding domain containing 5)	no change with or without drug	-0.22	-0.17
39	Myo7b (myosin VIIB)	no change with or without drug	0.56	1.52
40	Ubxn1 (UBX domain protein 1)	no change with or without drug	-0.56	1.18
41	Zkscan17 (zinc finger with KRAB and SCAN domains 17)	no change with or without drug	0.67	1.52
42	Spsb3 (splA/ryanodine receptor domain and SOCS box containing 3)	no change with or without drug	0.79	-0.51
43	Gpr4 (G protein-coupled receptor 4)	no change with or without drug	0.34	0.17
44	Tnfrsf13b (tumor necrosis factor receptor superfamily, member 13b)	high cell count without drug only	-1.12	2.02
45	Arvcf (armadillo repeat gene deleted in velocardiofacial syndrome)	high cell count with doxorubicin only	3.93	1.85
46	Col13a1 (collagen, type XIII, alpha 1)	no change with or without drug	0.34	1.52
47	Slc12a9	no change with or without drug	1.12	1.01
48	Slc12a9	no change with or without drug	0.9	1.01
49	Ctsb (cathepsin B)	no change with or without drug	0	-0.84
50	1700120K04Rik (RIKEN cDNA 1700120K04 gene)	low cell count with doxorubicin only (active)	-3.6	0.17
